{
  "source": "paper PMC10163288",
  "binders": {"B1": {"name": "il2ra_site1_2b5i_sap_23_mot_1f7ad80a01f6a0ac92445803fe988700_0001_000000145_0001_1_14_H_._HHH_b2_00866_0001_0000100006_0000001_0_0001_af2pred_dldesign_0_af2pred (protein)", "chain": "SSSSSDDDQYKELVDALLEEARTIEDPLRRRQILLLARRVAKKGGNPELIARVEAVLAELSSSSS"}, "B2": {"name": "il2ra_site2_2erj_sap_26_mot_HHH_b2_07015_000000077_0001_40_57_H_._HHH_b1_02157_0002_0000200034_0000001_0_0001_af2pred_0001_1_af2pred_swapped (protein)", "chain": "SSSSSDEQEEAERAASRVIELFLEGNPEEAERLLEELEKELEEAGNERLLKFVKSLLSFLSSSSS"}, "B3": {"name": "il2ra_site1_2b5i_sap_23_mot_0e5a94e4a5addaac739760efb25f0f5d_0001_000000208_0001_18_32_H_._ems_3hC_1310_0001_0001_0000100003_0000001_0_0001_af2pred_0001_af2pred … (protein)", "chain": "SSSSSEAHERAAKIVDELAEEFGLNAEELNLLVRLAVKLIWRGVSPEEIEEILEEFARQLSSSSS"}, "B4": {"name": "il2ra_site2_3nfp_sap_14_mot_HHH_b2_05442_af2_000000054_0001_40_54_H_._HHH_b2_08272_0001_0000300028_0000001_0_0001_af2pred_0001_1_af2pred_swapped (protein)", "chain": "SSSSSDERERRRAVESALRLAKRISDEEELRNALEFAKAVALAGNDPELEELVREVEEELSSSSS"}, "B5": {"name": "il2ra_site2_3nfp_normal_mot_HHH_b1_03966_000000254_0001_1_19_H_._HHH_eva_0362_af2_0001_0000200008_0000001_0 (protein)", "chain": "STPIEEVIKLAEEALEALLAAGLIDPEEAQEWKELLEEAEEKGDEELAHRLAFEIYKILRKHNSS"}, "B6": {"name": "il2ra_site2_2erj_normal_mot_HHH_b1_00839_000000020_0001_43_57_H_._HHH_b1_00666_0001_0000100001_0000001_0 (protein)", "chain": "SSSSDERTEEVSEIVARAIELFRRGNPEEARKILEEALRLAEENNDEFLARFLEFALRYASSSSS"}, "B7": {"name": "il2ra_site2_2erj_sap_22_mot_HHH_b2_07386_000000253_0001_42_56_H_._HHH_b2_01916_0001_0000100007_0000001_0_0001 (protein)", "chain": "SSSSSDEEFEEVAELLARAAHVRDEREFRELLKEAEELAEEANSEFAERYIRFARRHFGSSSSSS"}, "B8": {"name": "il2ra_site1_2b5i_sap_14_mot_HHH_b2_04463_000000268_0001_43_57_H_._HHH_b1_07611_0001_0000200012_0000001_0_0001_af2pred_dldesign_0_af2pred (protein)", "chain": "SSSSSSPEERRKEVEKLIEEAKKLEDPFERSKTLFKALWLALALKDPELVAKVKKVYDELSSSSS"}, "B9": {"name": "il2ra_site2_2erj_sap_23_mot_HHH_b1_06078_000000236_0001_23_39_H_._HHH_b2_00884_0001_0000300007_0000001_0_0001_af2pred_0001_af2pred (protein)", "chain": "SSSSDEEEERVEELLKQIRELYEKGDFEEVSRLLQEITEIAYKSNNPELLRLLHELLEELTSSSS"}, "B10": {"name": "il2ra_site1_3nfp_normal_mot_HHH_b1_01159_af2_000000075_0001_1_20_H_._HHH_b1_00388_af2_0001_0000200007_0000001_0_af2pred_0001_af2pred_1 (protein)", "chain": "SSSSDERSKRVQELLEEAARLFQNGDPEEAREVLEEALRLAEELGNPAARKFIEATLRTASSSSS"}, "B11": {"name": "il2ra_site2_3nfp_normal_mot_HHH_b2_06150_000000217_0001_39_53_H_._HHH_b1_06172_0001_0000100008_0000001_0 (protein)", "chain": "SSSSSEYKERIEELLEELRELLERNDEERFREVSAEIVHLVFEARDSELFMLLAELLYKFASSSS"}, "B12": {"name": "il2ra_site2_3nfp_normal_mot_HHH_b1_01086_000000225_0001_20_36_H_._HHH_b2_00915_0001_0000400033_0000001_0_af2pred_0001_1_af2pred_swapped (protein)", "chain": "SSSSSDEELKEEVEELLEEAKKIDDPHERFAVLAEAFTLAVENNDPELEELVRRVARELSSSSSS"}, "B13": {"name": "il2ra_site2_3nfp_normal_mot_HHH_b2_01155_000000159_0001_38_52_H_._HHH_b2_03822_0001_0000600040_0000001_0 (protein)", "chain": "SSSSSSEDQERVEELLERAEKTSDPEERERLLAEALRIAYEAGDSELFMLVAEVAFELRQSSSSS"}, "B14": {"name": "il2ra_site2_2erj_normal_mot_8a316d4779eb53efc793250774d75e68_0001_af2_000000043_0001_18_32_H_._HHH_b2_02886_af2_0001_0001200029_0000001_0 (protein)", "chain": "SSSSDEEEVEKLLEEAKKLEEEGNPEEAASVVIEAALIAARAGSPLFEEASRIFEELFRLLSSSS"}, "B15": {"name": "il2ra_site2_2erj_normal_mot_HHH_b2_05720_000000165_0001_1_18_H_._HHH_b1_08552_af2_0001_0000600018_0000001_0 (protein)", "chain": "SSSSSELEELARRIVEHAVEAVGLSEEQKEKLEELAEELVERGLSQEEIARELFRLALRLGSSSS"}, "B16": {"name": "il2ra_site1_2b5i_sap_12_mot_3116615af0ee64d731c1c85d8523bf51_0001_000000216_0001_15_32_H_._30473498bc9c9bc4038a1594c8f83366_0001_af2_0001_0000100002_0000001_0_0 … (protein)", "chain": "SSSDLRELDRFAAEVVDRLAEELGLDSEQYNLLLRVAVEVIWRGLSEEEIKEILERVAEELSSSS"}, "B17": {"name": "il2ra_site2_2erj_normal_mot_HHH_b1_07186_000000032_0001_43_57_H_._HHH_b2_05479_af2_0001_0000700043_0000001_0 (protein)", "chain": "SSSSDEERLELLVEIAELAHNGDLEEAERLAEELLEEAEKRGNELLVRYLELLLEDIRRASSSSS"}, "B18": {"name": "il2ra_site2_3nfp_sap_28_mot_HHH_b2_06150_000000251_0001_1_17_H_._71fa3b3ce36e4cc21c7110f2bf27d1ce_0001_af2_0001_0000200012_0000001_1_0001 (protein)", "chain": "SSSSSELEELLREAEELLEEGDPSEAAQVLMEASEIARERNDEEAFREIARVYELALKLYRSSSS"}},
  "note": "This is one part of the list.",
  "data": [
    {"target": "il2ra, P01589", "assay": "yeast display titration", "values": [
      {"binder": "B1", "apparent Kd": "inactive: no binding seen"},
      {"binder": "B2", "apparent Kd": "inactive: no binding seen"},
      {"binder": "B3", "apparent Kd": "inactive: no binding seen"},
      {"binder": "B4", "apparent Kd": "inactive: no binding seen"},
      {"binder": "B5", "apparent Kd": "inactive: no binding seen"},
      {"binder": "B6", "apparent Kd": "inactive: no binding seen"},
      {"binder": "B7", "apparent Kd": "inactive: no binding seen"},
      {"binder": "B8", "apparent Kd": "inactive: no binding seen"},
      {"binder": "B9", "apparent Kd": "inactive: no binding seen"},
      {"binder": "B10", "apparent Kd": "inactive: no binding seen"},
      {"binder": "B11", "apparent Kd": "inactive: no binding seen"},
      {"binder": "B12", "apparent Kd": "inactive: no binding seen"},
      {"binder": "B13", "apparent Kd": "inactive: no binding seen"},
      {"binder": "B14", "apparent Kd": "inactive: no binding seen"},
      {"binder": "B15", "apparent Kd": "inactive: no binding seen"},
      {"binder": "B16", "apparent Kd": "inactive: no binding seen"},
      {"binder": "B17", "apparent Kd": "inactive: no binding seen"},
      {"binder": "B18", "apparent Kd": "inactive: no binding seen"}
    ]}
  ]
}
